# Measurements from PubChem BioAssay AID540256 (National Center for Advancing Translational Sciences (NCATS), 2011).
# Out of some 300,000 compounds screened, about 3,700 (1.2%) were called active. Inconclusive results, whose numbers are uncertain, are shown with a selection of clear calls. The call rests on the fitted dose curve; tested in HEK293 cells. Potencies of inconclusive entries are doubtful fits and often do not repeat.
# Experiment: qHTS for Inhibitors of binding or entry into cells for Lassa Virus; further: nearly all actives have a fitted effect of over 50% in size
# Settings: Lassa virus pseudotype entry inhibition, cell reporter; activity change, negative = inhibition: at 37.9 µM (top of the series) unless noted
# On the % scale 0 is the no-effect control and ±100 the full control effect; potency means the concentration at half of the fitted maximal effect.
Compound,Potency,"activity change, negative = inhibition"
CC(C)Oc1ccc(C2c3c(oc4ccccc4c3=O)C(=O)N2CCCN2CCOCC2)cc1 (stereo not drawn),inactive,
Fc1ccc(NC(=S)NN=C2CCCCCC2)cc1,"inconclusive: 32.6 µM [inhibitor, single point]",
NC(=O)COC(=O)CCCSc1nc2ccccc2s1,"inconclusive: 22.4 µM [inhibitor, single point]",
CC(C)CC1NC(=O)N(CC(=O)Nc2cc([N+](=O)[O-])ccc2F)C1=O (stereo not drawn),"inconclusive: 3.98 µM [activator, partial curve, poor fit]",
O=C(N/N=C/c1cccc(NC(=O)c2ccc(Cl)cc2)c1)c1cccc(O)c1,"inconclusive: 6.31 µM [inhibitor, partial curve, poor fit]",
CN(C)c1ccc(C(=O)OCC(=O)N2CCCC2)cc1,inactive,
CCC1CN(C(=O)N2CCC(C(=O)NCc3ccc(C)o3)CC2)c2cc(C)ccc2O1 (stereo not drawn),"inconclusive: 7.08 µM [inhibitor, partial curve]",
c1ccc(Oc2cccc(CN3CCOCC3)c2)cc1,inactive,
CN(Cc1ccccc1)C(=O)CCSc1nc(-c2ccc3c(c2)OCO3)cc(C(F)(F)F)n1,"inconclusive: 35.5 µM [inhibitor, partial curve, poor fit]",
O=c1c2ccccc2nc(COc2ccccc2)n1/N=C/c1cc([N+](=O)[O-])ccc1O,"inconclusive: 10 µM [inhibitor, partial curve, poor fit]",
COc1cccc(/C=N\NC(=O)Cn2nnc3ccccc32)c1O,"inconclusive: 17.8 µM [inhibitor, partial curve, poor fit]",
Cc1ccc(N(C)S(=O)(=O)c2cccc(C(=O)OCC(=O)c3c(N)n(C)c(=O)n(C)c3=O)c2)cc1,"inconclusive: 35.5 µM [inhibitor, single point]",
COc1ccc(-c2cc(C(F)(F)F)nc(SCC(=O)N3CCOCC3)n2)cc1OC,inactive,
CCOc1ccc(C(=O)CCc2nc3ccccc3s2)cc1,"inconclusive: 0.206 µM [inhibitor, single point]",
CCOC(=O)c1cc2c(=O)n3ccccc3nc2n(CC2CCCO2)c1=NC(=O)c1cccc(C(F)(F)F)c1 (stereo not drawn),inactive,
Nc1cc(=O)[nH]c(SCC(=O)Nc2ccccc2Sc2ccc(Cl)cc2)n1,"inconclusive: 8.91 µM [inhibitor, partial curve, poor fit]",
CC1CCN(C(=O)c2ccc(NS(C)(=O)=O)cc2)CC1,inactive,
CC(=O)c1sc2c(c1C)c(=O)n(-c1ccc(Cl)cc1)c(=O)n2Cc1ccc(Cl)cc1,"inconclusive: 3.98 µM [inhibitor, partial curve, poor fit]",
CCOC(=O)N1CCC(n2c(SCC(=O)N3CCCC3)nc3ccccc3c2=O)CC1,"inconclusive: 13 µM [inhibitor, partial curve, poor fit]",
COc1ccccc1CCC(=O)Nc1cccc(S(=O)(=O)N2CCCC2)c1,inactive,
COc1ccc(-c2n[nH]c(=S)n2Cc2ccccc2)cc1,"inconclusive: 35.5 µM [inhibitor, single point]",
CCOC(=O)c1ccc(NC(=O)C2Cc3ccccc3CN2S(=O)(=O)c2ccc(Cl)cc2)cc1 (stereo not drawn),"inconclusive: 10 µM [inhibitor, partial curve, poor fit]",

# Retrieved by structure from the entries so far (2):
Compound,Potency,"activity change, negative = inhibition"
O=C(N/N=C/c1cccc(NC(=O)c2ccc(Cl)cc2)c1)c1cccc(O)c1,"inconclusive: 6.31 µM [inhibitor, partial curve, poor fit]",
CCOc1ccc(C(=O)CCc2nc3ccccc3s2)cc1,"inconclusive: 0.206 µM [inhibitor, single point]",

# (listing goes on)

Compound,Potency,"activity change, negative = inhibition"
COc1ccc(NC(=O)C(NC(=O)OC(C)(C)C)C(C)OCc2ccccc2)cc1 (stereo not drawn),inactive,
COc1ccc(-c2cc(C(=O)NCc3ccc(Cl)cc3)no2)cc1OC,inactive,
CCN(CC)S(=O)(=O)c1cc(C(=O)Nc2cccnc2)ccc1Cl,inactive,
Cc1ccc(N2Cc3ccccc3C2=S)cc1,"inconclusive: 17.8 µM [inhibitor, single point]",
COc1cc(/C=N\Nc2nncn2N)ccc1OC(C)=O,"inconclusive: 35.5 µM [inhibitor, single point]",
COC(=O)c1ccc2c(=O)n(-c3ccccc3)c(=S)[nH]c2c1,"inconclusive: 11.2 µM [inhibitor, partial curve, poor fit]",
O=C(COC(=O)/C=C/c1cccs1)NC1CC1,,inconclusive: 8.55% [activator] [at 46.1 µM]
O=C(COc1ccc(Br)cc1Cl)c1ccc[nH]1,"inconclusive: 35.5 µM [activator, single point]",
CN(Cc1cc(Cl)cc(Cl)c1O)Cc1c(O)ccc2ccccc12,inactive,
CN1CCN(C(c2ccccc2)c2sc3nc(-c4ccco4)nn3c2O)CC1 (stereo not drawn),inactive,
CC(=O)Nc1ccc(C=NN=C2c3ccccc3-c3ccccc32)cc1,"inconclusive: 11.2 µM [inhibitor, single point]",
COc1ccc(CN(C)S(=O)(=O)c2nnc(NC(=O)c3ccccc3)s2)cc1OC,"inconclusive: 5.62 µM [inhibitor, single point]",
O=C(Nc1cccc(C(F)(F)F)c1)Oc1ccc(Cl)c2cccnc12,"inconclusive: 17.8 µM [inhibitor, partial curve, poor fit]",
CC(=O)N1CCN(Cc2nc3scc(-c4ccccc4)c3c(=O)[nH]2)CC1,inactive,
COCc1nnc(NC(=O)c2ccc(NC(=O)C(C)C)cc2)s1,inactive,
O=C(C(Cc1ccccc1)N1C(=O)c2ccccc2C1=O)N1CCc2ccccc21 (stereo not drawn),"inconclusive: 15.8 µM [inhibitor, partial curve, poor fit]",
CC(/C=C/c1ccco1)=N\NC(=O)COc1ccc(C)c(C)c1,inactive,
COc1ccc(CCNC(=O)CCc2ccc(S(=O)(=O)NCC(C)C)cc2)cc1,"inconclusive: 0.0731 µM [inhibitor, full curve]",
CC(C)CCNC(=O)C1CCCN(S(=O)(=O)c2ccc(-n3cnnn3)cc2)C1 (stereo not drawn),"inconclusive: 6.31 µM [inhibitor, partial curve, poor fit]",
CCN(CC)S(=O)(=O)c1ccc(O)c(C(=O)OCC(=O)NC23CC4CC(CC(C4)C2)C3)c1,"inconclusive: 3.16 µM [inhibitor, partial curve, poor fit]",
CC(=O)N1CCCc2cc(S(=O)(=O)N3CCC(C(=O)NCCC(C)C)CC3)ccc21,inactive,
